No constants are given. Whether binding was seen depends on the method and setting. In cells and extracts the contact can be indirect. Here binding means that the protein was enriched with, or labelled near, the bait; the list need not be complete. Where a sequence is shown, tags or fusion partners need not be part of it.
Biological target: T1, flag-SHP (Small Heterodimer Partner, NR0B2), wild type, expressed in HepG2 cells (mouse) (UniProt Q62227)
T1 sequence: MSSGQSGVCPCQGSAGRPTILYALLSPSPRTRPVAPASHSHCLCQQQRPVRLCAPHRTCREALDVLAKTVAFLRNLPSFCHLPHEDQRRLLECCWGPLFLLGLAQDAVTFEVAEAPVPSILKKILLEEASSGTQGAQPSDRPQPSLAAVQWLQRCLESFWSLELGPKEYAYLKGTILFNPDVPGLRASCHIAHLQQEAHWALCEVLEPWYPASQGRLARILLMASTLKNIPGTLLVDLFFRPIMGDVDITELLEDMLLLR
Experiment: affinity purification with mass spectrometry; flag-SHP complexes (flag-SHP immunoprecipitate) from HepG2 cells treated with vehicle or CDCA; liquid chromatography-mass spectrometry

Protein sequences, listed by entry. Tags and fused reporters are not part of them.
UniProt P49792: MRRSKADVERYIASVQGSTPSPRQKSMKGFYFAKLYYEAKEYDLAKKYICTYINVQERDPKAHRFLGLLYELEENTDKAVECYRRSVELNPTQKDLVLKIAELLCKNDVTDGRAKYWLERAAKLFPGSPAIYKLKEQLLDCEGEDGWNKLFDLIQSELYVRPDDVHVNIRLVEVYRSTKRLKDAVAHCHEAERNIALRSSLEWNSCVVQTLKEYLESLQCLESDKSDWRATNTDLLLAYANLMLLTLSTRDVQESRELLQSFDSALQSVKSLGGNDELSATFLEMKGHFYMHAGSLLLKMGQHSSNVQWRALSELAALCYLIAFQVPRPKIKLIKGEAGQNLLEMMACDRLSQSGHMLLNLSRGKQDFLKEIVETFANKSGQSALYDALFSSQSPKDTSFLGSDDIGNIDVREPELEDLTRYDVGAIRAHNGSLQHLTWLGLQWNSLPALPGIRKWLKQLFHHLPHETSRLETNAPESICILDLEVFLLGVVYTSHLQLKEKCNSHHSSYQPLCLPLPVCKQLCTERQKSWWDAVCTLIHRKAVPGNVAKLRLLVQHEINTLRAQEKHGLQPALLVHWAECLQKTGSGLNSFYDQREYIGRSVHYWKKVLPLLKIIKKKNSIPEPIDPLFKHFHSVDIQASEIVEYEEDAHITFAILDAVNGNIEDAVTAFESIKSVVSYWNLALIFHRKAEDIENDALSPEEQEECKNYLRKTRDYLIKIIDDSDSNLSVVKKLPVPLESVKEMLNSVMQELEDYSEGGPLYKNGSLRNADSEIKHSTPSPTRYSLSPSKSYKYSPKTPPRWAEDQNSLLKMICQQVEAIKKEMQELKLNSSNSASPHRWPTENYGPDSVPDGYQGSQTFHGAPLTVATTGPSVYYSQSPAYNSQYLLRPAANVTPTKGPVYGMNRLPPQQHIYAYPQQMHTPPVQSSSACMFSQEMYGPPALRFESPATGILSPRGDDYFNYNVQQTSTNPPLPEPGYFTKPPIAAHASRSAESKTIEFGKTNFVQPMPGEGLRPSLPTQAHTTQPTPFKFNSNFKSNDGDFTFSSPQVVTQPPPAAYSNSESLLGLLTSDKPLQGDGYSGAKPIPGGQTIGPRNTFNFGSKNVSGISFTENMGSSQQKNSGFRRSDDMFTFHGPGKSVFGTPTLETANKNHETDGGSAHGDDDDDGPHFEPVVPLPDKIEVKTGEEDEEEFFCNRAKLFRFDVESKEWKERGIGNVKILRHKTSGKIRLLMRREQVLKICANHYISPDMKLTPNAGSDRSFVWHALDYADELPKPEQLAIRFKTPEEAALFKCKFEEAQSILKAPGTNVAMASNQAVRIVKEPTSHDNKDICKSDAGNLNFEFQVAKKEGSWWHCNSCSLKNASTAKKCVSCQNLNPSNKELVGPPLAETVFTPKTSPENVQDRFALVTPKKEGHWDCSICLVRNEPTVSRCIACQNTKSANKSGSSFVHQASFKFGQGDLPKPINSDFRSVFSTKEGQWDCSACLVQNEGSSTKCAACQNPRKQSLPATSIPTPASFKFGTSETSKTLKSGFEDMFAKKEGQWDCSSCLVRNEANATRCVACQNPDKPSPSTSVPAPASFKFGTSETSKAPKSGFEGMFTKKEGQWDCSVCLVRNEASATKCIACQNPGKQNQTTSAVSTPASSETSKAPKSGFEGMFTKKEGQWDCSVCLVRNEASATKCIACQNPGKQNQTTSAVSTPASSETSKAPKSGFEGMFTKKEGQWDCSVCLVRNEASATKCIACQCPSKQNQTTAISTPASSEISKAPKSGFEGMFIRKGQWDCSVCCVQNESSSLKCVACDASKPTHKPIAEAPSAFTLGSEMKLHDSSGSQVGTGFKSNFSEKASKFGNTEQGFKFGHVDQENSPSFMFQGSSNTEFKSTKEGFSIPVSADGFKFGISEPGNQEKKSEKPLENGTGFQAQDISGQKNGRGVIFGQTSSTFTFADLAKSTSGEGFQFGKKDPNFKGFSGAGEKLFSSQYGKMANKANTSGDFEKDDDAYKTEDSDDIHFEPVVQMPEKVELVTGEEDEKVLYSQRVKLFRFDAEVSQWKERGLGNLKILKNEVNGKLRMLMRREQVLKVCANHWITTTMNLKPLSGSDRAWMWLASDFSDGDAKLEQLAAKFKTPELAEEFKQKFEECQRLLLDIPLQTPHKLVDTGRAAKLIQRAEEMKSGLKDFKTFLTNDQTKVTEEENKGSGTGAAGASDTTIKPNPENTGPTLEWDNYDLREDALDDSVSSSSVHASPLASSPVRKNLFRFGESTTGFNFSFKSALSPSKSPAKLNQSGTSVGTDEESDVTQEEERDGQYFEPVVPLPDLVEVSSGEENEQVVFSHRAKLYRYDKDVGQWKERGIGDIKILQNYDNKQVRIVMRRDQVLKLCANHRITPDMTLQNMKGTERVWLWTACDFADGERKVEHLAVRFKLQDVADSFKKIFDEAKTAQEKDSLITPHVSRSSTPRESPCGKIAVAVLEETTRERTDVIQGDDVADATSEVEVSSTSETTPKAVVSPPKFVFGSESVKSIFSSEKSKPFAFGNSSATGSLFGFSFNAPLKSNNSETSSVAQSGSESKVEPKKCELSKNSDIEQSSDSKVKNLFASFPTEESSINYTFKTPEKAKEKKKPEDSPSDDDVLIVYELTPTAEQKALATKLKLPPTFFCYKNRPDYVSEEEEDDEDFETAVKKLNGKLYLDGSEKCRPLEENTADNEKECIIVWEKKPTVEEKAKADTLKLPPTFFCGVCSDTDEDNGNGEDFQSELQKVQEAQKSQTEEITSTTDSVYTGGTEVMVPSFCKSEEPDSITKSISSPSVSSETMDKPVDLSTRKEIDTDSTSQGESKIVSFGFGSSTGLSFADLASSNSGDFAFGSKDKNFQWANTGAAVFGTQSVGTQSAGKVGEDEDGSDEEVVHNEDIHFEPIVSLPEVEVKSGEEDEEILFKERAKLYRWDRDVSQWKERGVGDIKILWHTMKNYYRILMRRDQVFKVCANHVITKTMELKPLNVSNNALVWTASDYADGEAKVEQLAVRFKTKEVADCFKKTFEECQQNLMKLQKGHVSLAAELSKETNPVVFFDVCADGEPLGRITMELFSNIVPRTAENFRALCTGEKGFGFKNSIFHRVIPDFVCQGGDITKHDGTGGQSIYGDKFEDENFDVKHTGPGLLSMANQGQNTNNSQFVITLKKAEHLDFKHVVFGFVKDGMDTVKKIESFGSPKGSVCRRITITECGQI

binding: binds
Substance: Ran-binding protein 2 (RanBP2/Nup358), endogenous in HepG2 cells (from UniProt P49792 1-3224)
